{"sequences": {"note": "Amino acid sequences for entries named in this document (tags omitted).", "UniProt P15311": "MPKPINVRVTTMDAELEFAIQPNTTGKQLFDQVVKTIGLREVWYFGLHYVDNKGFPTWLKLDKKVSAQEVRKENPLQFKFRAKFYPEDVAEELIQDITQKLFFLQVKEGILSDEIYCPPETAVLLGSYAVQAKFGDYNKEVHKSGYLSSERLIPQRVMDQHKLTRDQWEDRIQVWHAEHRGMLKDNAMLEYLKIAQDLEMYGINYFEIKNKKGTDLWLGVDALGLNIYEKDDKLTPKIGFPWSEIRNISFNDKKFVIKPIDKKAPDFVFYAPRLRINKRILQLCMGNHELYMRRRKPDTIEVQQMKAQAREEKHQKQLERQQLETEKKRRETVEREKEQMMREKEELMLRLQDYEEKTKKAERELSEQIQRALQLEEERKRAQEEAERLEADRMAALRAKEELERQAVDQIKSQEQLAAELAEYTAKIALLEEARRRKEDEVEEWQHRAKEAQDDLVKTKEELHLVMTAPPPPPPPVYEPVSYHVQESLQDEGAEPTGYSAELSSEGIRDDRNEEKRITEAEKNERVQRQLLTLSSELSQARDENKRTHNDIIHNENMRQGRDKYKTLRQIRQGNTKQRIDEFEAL"}, "source": "paper PMC6195804", "molecules": {"B1": {"name": "aquaporin-3 (protein, UniProt Q92482 1-292)", "chain": "MGRQKELVSRCGEMLHIRYRLLRQALAECLGTLILVMFGCGSVAQVVLSRGTHGGFLTINLAFGFAVTLGILIAGQVSGAHLNPAVTFAMCFLAREPWIKLPIYTLAQTLGAFLGAGIVFGLYYDAIWHFADNQLFVSGPNGTAGIFATYPSGHLDMINGFFDQFIGTASLIVCVLAIVDPYNNPVPRGLEAFTVGLVVLVIGTSMGFNSGYAVNPARDFGPRLFTALAGWGSAVFTTGQHWWWVPIVSPLLGSIAGVFVYQLMIGCHLEQPPPSNEEENVKLAHVKHKEQI"}}, "key": {"[1]": {"target": "T1, aquaporin-3 (human (endogenous in RL95-2)) (UniProt Q92482)", "T1 sequence": "B1 chain", "test": "co-IP; RL95-2 lysate (25 mM HEPES, 100 mM NaCl, 1 mM EDTA, 0.5 mM MgCl2, 10% glycerol, 1% Nonidet P-40, pH 7.5); anti-AQP3 or anti-ezrin antibody at 4°C overnight, protein A/G agarose beads; IgG as negative control; western blot"}, "[2]": {"target": "ezrin (human (endogenous in RL95-2)) (UniProt P15311)", "test": "co-IP; RL95-2 lysate (25 mM HEPES, 100 mM NaCl, 1 mM EDTA, 0.5 mM MgCl2, 10% glycerol, 1% Nonidet P-40, pH 7.5); anti-AQP3 or anti-ezrin antibody at 4°C overnight, protein A/G agarose beads; IgG as negative control; western blot"}}, "note": "No constants are given. Whether binding was seen depends on the method and setting. Binding seen in cells or lysates may run through a third protein. Some entries that bind do so weakly or less than the wild type."}
{"molecule": "ezrin (from UniProt P15311 1-586)", "values": [{"measurement": "binding", "setting": "[1]", "result": "binds"}]}
{"molecule": "B1", "values": [{"measurement": "binding", "setting": "[2]", "result": "binds"}]}
